Here are results for 15 targets from the supplement of paper PMC6411743.

Sequences of proteins named here, by UniProt entry; tags and fusion partners are left off. A change or cut given only in a name is not applied to a line headed by its entry.
UniProt Q9NTJ4: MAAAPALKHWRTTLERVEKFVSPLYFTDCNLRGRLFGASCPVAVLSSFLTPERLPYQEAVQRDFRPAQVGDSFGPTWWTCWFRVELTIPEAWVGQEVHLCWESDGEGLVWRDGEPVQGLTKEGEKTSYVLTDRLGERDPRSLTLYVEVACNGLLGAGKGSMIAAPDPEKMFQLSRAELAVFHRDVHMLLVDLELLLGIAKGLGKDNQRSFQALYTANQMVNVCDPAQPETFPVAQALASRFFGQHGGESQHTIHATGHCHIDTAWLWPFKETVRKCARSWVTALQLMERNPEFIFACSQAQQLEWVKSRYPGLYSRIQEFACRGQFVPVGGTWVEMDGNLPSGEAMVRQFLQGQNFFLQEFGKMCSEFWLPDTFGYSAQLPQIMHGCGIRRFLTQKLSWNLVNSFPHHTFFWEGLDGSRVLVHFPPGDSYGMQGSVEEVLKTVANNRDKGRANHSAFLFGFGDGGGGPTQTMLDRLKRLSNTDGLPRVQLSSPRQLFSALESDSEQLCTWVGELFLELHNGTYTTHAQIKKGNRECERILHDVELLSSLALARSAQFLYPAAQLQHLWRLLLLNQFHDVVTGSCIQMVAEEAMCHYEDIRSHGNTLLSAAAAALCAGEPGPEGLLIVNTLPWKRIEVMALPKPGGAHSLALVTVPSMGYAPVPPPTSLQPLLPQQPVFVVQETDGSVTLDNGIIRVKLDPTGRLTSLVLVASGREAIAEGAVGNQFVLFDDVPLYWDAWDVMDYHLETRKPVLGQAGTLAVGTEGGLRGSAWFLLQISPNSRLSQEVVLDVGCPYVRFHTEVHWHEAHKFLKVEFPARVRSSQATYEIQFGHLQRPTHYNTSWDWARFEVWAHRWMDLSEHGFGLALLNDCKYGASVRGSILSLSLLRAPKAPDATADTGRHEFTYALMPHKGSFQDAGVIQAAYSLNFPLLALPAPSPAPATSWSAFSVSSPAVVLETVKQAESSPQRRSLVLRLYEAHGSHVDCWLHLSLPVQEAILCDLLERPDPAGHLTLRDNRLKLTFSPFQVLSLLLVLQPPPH
UniProt P29323: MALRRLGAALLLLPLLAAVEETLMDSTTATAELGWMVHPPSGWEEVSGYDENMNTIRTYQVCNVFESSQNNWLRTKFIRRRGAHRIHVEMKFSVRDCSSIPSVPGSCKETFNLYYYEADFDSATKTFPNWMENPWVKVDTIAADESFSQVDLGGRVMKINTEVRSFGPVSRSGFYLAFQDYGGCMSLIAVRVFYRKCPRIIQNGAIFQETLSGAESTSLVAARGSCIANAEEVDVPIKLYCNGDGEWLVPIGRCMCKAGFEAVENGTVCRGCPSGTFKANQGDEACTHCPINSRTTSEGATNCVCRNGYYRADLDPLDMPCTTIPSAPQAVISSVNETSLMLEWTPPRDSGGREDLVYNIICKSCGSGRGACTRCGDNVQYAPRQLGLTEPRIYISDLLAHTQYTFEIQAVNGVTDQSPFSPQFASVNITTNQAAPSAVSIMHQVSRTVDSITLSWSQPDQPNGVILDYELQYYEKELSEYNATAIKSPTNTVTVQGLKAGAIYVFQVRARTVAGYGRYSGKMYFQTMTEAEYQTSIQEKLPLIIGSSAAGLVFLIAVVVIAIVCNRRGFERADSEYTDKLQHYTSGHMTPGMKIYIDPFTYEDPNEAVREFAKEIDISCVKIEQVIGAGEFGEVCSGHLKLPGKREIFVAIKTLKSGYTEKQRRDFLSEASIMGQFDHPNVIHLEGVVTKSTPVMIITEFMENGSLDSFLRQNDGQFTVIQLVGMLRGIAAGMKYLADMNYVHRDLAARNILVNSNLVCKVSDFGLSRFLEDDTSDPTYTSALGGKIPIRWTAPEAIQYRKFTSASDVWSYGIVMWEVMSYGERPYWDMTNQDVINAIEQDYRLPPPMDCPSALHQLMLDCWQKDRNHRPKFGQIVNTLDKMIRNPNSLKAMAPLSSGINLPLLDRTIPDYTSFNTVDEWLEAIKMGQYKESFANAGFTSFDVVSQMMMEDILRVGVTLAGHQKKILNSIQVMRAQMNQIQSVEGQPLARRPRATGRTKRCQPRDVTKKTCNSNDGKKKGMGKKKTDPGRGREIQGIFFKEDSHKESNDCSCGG
UniProt P13010: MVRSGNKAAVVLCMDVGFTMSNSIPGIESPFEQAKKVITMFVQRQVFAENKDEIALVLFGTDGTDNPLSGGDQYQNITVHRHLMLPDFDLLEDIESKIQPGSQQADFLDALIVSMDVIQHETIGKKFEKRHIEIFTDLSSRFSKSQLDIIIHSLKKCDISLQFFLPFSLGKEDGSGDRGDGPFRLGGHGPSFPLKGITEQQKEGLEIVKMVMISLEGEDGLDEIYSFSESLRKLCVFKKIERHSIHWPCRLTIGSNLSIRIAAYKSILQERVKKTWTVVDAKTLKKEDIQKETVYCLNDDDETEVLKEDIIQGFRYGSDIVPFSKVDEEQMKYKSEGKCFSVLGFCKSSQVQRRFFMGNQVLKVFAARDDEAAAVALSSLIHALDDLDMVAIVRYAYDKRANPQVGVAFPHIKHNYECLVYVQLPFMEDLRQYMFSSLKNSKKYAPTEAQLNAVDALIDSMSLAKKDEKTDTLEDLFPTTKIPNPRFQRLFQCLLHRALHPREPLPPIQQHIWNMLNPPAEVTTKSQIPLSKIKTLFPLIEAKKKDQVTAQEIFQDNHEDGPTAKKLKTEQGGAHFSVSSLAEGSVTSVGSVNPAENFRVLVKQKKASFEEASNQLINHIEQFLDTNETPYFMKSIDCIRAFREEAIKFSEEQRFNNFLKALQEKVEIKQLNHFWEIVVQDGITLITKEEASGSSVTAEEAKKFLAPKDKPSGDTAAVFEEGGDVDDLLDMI
UniProt Q5JSL3: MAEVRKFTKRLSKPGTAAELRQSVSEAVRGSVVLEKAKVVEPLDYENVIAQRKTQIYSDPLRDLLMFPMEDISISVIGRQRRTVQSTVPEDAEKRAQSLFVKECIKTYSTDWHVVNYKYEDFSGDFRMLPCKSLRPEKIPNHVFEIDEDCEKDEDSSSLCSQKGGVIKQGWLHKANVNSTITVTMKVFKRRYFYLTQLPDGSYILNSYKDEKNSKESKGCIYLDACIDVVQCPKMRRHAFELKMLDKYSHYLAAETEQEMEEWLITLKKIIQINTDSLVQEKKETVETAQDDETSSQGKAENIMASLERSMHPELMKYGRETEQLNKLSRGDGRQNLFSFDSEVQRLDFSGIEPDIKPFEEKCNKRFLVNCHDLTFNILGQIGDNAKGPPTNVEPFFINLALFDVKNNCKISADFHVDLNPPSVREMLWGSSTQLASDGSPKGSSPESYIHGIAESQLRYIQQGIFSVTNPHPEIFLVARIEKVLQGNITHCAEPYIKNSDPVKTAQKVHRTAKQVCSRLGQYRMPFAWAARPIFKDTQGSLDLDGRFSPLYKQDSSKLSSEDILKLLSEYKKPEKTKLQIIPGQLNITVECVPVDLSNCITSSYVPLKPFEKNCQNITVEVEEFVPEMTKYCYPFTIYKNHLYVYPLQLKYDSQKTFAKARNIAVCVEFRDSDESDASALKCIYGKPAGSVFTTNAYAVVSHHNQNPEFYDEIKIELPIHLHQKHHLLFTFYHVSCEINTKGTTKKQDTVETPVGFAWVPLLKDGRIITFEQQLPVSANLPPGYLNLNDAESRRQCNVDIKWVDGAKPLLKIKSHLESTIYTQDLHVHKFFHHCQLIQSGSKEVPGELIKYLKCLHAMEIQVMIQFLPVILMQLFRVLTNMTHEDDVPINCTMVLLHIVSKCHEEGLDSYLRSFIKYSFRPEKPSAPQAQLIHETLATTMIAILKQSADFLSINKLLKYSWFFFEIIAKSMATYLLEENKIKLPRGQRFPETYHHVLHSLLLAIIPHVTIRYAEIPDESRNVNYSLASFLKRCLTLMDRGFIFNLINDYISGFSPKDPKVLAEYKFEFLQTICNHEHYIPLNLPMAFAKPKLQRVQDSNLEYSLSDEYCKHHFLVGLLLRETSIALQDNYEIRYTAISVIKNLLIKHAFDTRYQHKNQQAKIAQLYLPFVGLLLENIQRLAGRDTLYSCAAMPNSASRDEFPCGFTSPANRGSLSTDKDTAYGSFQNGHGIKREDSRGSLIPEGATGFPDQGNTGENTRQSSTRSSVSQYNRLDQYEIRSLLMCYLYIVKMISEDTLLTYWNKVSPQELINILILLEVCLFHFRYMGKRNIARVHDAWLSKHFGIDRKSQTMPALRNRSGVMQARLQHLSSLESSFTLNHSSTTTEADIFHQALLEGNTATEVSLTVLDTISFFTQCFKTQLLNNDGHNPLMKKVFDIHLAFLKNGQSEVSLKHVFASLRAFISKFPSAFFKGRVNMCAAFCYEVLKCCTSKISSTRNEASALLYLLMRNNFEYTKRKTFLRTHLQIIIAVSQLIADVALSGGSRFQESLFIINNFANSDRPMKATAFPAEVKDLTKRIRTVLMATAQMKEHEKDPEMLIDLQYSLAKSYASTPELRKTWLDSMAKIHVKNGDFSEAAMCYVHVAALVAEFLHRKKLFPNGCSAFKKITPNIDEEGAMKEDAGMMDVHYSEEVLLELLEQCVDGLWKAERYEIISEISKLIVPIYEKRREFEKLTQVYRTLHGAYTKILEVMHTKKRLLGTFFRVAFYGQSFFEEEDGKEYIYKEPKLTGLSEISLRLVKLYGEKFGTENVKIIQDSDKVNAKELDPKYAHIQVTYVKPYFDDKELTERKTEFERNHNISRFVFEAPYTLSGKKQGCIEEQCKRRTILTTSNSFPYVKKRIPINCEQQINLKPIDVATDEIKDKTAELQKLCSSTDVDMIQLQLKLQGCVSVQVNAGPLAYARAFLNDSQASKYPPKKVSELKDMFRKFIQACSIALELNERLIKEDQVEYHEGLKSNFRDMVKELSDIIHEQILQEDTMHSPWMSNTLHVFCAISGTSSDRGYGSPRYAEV
UniProt P40616: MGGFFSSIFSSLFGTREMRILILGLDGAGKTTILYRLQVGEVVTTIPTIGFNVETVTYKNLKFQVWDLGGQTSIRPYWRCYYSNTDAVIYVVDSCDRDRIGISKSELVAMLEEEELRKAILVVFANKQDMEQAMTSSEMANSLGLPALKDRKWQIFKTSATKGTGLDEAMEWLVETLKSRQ
UniProt P51617, whole entry, looked up: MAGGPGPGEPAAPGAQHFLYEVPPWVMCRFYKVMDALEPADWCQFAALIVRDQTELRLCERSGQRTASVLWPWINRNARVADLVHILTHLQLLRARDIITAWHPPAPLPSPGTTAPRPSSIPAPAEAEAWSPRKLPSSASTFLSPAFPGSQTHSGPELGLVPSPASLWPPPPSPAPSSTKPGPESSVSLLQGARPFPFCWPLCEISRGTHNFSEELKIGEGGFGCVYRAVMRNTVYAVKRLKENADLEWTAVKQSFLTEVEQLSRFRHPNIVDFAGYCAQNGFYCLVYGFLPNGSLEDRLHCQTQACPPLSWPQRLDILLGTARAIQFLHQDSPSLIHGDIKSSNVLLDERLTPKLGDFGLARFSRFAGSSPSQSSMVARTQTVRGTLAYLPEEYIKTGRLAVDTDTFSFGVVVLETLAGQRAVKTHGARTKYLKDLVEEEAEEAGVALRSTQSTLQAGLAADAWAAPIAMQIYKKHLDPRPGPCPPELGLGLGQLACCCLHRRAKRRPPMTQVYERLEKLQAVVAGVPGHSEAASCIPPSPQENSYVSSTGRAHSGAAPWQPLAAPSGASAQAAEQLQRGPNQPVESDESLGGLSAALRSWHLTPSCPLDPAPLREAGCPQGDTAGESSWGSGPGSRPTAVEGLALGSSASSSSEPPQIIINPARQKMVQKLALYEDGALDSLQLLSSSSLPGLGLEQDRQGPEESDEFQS
UniProt O75832: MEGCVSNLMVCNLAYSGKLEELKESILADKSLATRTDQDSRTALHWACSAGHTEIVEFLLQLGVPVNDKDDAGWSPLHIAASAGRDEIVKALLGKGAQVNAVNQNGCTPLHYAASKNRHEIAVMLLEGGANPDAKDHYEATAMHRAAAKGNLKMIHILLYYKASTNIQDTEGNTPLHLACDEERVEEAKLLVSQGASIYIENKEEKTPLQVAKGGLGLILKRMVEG
UniProt Q13685: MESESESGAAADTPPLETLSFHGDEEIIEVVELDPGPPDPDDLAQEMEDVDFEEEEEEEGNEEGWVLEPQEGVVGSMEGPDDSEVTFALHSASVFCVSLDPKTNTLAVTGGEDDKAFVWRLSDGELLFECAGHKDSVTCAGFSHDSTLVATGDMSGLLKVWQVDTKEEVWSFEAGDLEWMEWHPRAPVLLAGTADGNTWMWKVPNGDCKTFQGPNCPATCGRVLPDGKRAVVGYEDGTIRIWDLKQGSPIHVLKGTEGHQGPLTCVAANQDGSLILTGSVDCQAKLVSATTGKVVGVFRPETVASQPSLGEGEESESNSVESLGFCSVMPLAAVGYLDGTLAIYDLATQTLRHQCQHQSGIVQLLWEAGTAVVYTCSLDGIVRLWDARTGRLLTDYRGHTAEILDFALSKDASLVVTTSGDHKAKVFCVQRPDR

Compound in the assay: Nc1ncnc2c1ncn2[C@@H]1O[C@H](COP(=O)(O)OP(=O)(O)NP(=O)(O)O)[C@@H](O)[C@H]1O [adenylyl imidodiphosphate]
Briefly: NP40-soluble protein abundance relative to vehicle (solubility fold change) (ratio); higher = more soluble protein in presence of AMP-PNP. The method, boiled down: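 In three independent experiments, Jurkat crude lysate made by Dounce homogenisation was treated for 10 min at room temperature and then 3 min at 37 °C with eight concentrations ranging from 0.1 to 10 mM. It was then solubilised with 0.8% NP40 plus benzonase for 60 min at 4 °C and ultracentrifuged. The supernatant was TMT-labelled for LC-MS/MS, and each value is the fold change against the detergent-processed vehicle for the same replicate, using vsn-normalised intensities.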

± gives the standard deviation of the averaged measurements. The list shows a part of the results, in another mix than the full data.

Regarding “B4DKB2 and related entries (UniProt P42892)”, the NP40-soluble protein abundance (concentration: 1mM) was 1.02 ± 0.019; the NP40-soluble protein abundance (concentration: 2mM) was determined as 1.04 ± 0.064; the NP40-soluble protein abundance (concentration: 4mM) is 1.02 ± 0.058; the NP40-soluble protein abundance (concentration: 6mM) is 1.04 ± 0.028; the NP40-soluble protein abundance (concentration: 8mM) came to 1.02 ± 0.027; the NP40-soluble protein abundance (concentration: 10mM) came to 1.05 ± 0.034.

Regarding “C9J4Z3 and related entries (UniProt P61513)”, the NP40-soluble protein abundance reads like this: (concentration: 1mM) 1.02 ± 0.029; (concentration: 2mM) 1.023 ± 0.0041; (concentration: 4mM) 1.03 ± 0.014; (concentration: 6mM) 1.03 ± 0.021; (concentration: 8mM) 0.948 ± 0.019; (concentration: 10mM) 1.03 ± 0.0093.

Turning to “D3YTK1 and related entries (UniProt Q9C0K0)”, the NP40-soluble protein abundance reads like this: (concentration: 1mM) 1.04 ± 0.087; (concentration: 2mM) 1.07 ± 0.027; (concentration: 4mM) 1.05 ± 0.084; (concentration: 6mM) 1 ± 0.08; (concentration: 8mM) 0.969 ± 0.049; (concentration: 10mM) 1.01 ± 0.069.

Take “B9EGE7 and related entries (UniProt Q8TCN5)”: the NP40-soluble protein abundance came to 0.959 ± 0.039 (concentration: 1mM); 0.997 ± 0.019 (concentration: 2mM); 0.956 ± 0.045 (concentration: 4mM); 0.952 ± 0.03 (concentration: 6mM); 0.928 ± 0.042 (concentration: 8mM); 0.928 ± 0.03 (concentration: 10mM).

For “B4DH23 and related entries (UniProt Q9NTJ4)”, the NP40-soluble protein abundance by setting is: (concentration: 1mM) 0.9663 ± 0.0016; (concentration: 2mM) 0.95 ± 0.057; (concentration: 4mM) 0.9488 ± 0.0049; (concentration: 6mM) 0.9338 ± 0.0091; (concentration: 8mM) 0.9635 ± 0.0043; (concentration: 10mM) 0.95107 ± 0.00049.

On to “B1AKC9 and related entries (UniProt P29323)”, for which the NP40-soluble protein abundance (concentration: 1mM) was 0.989 ± 0.028; the NP40-soluble protein abundance (concentration: 2mM) was found to be 0.984 ± 0.038; the NP40-soluble protein abundance (concentration: 4mM) was found to be 0.966 ± 0.042; the NP40-soluble protein abundance (concentration: 6mM) is 0.976 ± 0.053; the NP40-soluble protein abundance (concentration: 8mM) amounted to 0.996 ± 0.034; the NP40-soluble protein abundance (concentration: 10mM) amounted to 1 ± 0.031.

On to “C9JZ81 and related entries (UniProt P13010)”, for which the NP40-soluble protein abundance is 1.014 ± 0.01 (concentration: 1mM); 0.958 ± 0.049 (concentration: 2mM); 0.966 ± 0.026 (concentration: 4mM); 0.972 ± 0.016 (concentration: 6mM); 0.986 ± 0.013 (concentration: 8mM); 0.9477 ± 0.0081 (concentration: 10mM).

Consider “A6NIW2 and related entries (UniProt Q5JSL3)”, for which the NP40-soluble protein abundance turned out to be 0.963 ± 0.03 (concentration: 1mM); 0.916 ± 0.064 (concentration: 2mM); 0.967 ± 0.027 (concentration: 4mM); 0.919 ± 0.041 (concentration: 6mM); 0.936 ± 0.013 (concentration: 8mM); 0.892 ± 0.058 (concentration: 10mM).

Turning to “C9JM79 and related entries (UniProt Q13427)”, the NP40-soluble protein abundance is, setting by setting: (concentration: 1mM) 1.06 ± 0.061; (concentration: 2mM) 1.11 ± 0.067; (concentration: 4mM) 1.08 ± 0.082; (concentration: 6mM) 1.08 ± 0.037; (concentration: 8mM) 1.04 ± 0.1; (concentration: 10mM) 1.12 ± 0.1.

In the case of “B4DZG7 and related entries (UniProt P40616)”, the NP40-soluble protein abundance is, setting by setting: (concentration: 1mM) 1 ± 0.11; (concentration: 2mM) 0.887 ± 0.034; (concentration: 4mM) 1.02 ± 0.039; (concentration: 6mM) 0.994 ± 0.2; (concentration: 8mM) 1.05 ± 0.12; (concentration: 10mM) 0.99 ± 0.08.

With “D3YTB5 and related entries (UniProt P51617)”, the NP40-soluble protein abundance (concentration: 1mM) is 1.01 ± 0.016; the NP40-soluble protein abundance (concentration: 2mM) turned out to be 1.01 ± 0.036; the NP40-soluble protein abundance (concentration: 4mM) was found to be 1.01 ± 0.02; the NP40-soluble protein abundance (concentration: 6mM) worked out at 1.01 ± 0.024; the NP40-soluble protein abundance (concentration: 8mM) is 1.032 ± 0.0077; the NP40-soluble protein abundance (concentration: 10mM) amounted to 1.01 ± 0.01.

As for “D6RCD0 and related entries (UniProt Q8NBQ5)”, the NP40-soluble protein abundance turned out to be 0.995 ± 0.031 (concentration: 1mM); 0.9738 ± 0.0077 (concentration: 2mM); 1.01 ± 0.047 (concentration: 4mM); 1.06 ± 0.079 (concentration: 6mM); 1.04 ± 0.056 (concentration: 8mM); 1.04 ± 0.064 (concentration: 10mM).

As for “B1AJY7 and related entries (UniProt O75832)”, the NP40-soluble protein abundance stood at 0.98 ± 0.039 (concentration: 1mM); 0.986 ± 0.03 (concentration: 2mM); 0.952 ± 0.034 (concentration: 4mM); 0.961 ± 0.033 (concentration: 6mM); 0.942 ± 0.047 (concentration: 8mM); 0.94 ± 0.036 (concentration: 10mM).

In the case of “C9JEH3 and related entries (UniProt Q13685)”, the NP40-soluble protein abundance reads like this: (concentration: 1mM) 1.04 ± 0.03; (concentration: 2mM) 1.02 ± 0.032; (concentration: 4mM) 1.04 ± 0.029; (concentration: 6mM) 1.02 ± 0.029; (concentration: 8mM) 1.01 ± 0.038; (concentration: 10mM) 1.02 ± 0.037.

Regarding “C9J0Q5 and related entries (UniProt Q9Y618)”, the NP40-soluble protein abundance by setting is: (concentration: 1mM) 1.03 ± 0.0079; (concentration: 2mM) 1.05 ± 0.04; (concentration: 4mM) 1.03 ± 0.035; (concentration: 6mM) 0.969 ± 0.057; (concentration: 8mM) 0.951 ± 0.02; (concentration: 10mM) 1.01 ± 0.052.
